The supplement of paper PMC12819154, “High-throughput peptide-centric local stability assay extends protein–ligand identification to membrane proteins, tissues and bacteria” (Nature Structural & Molecular Biology, 2025)
The other results are listed elsewhere or left out. Most entries show no effect beyond the scatter of the controls.

Protein sequences, listed by entry. Tags and fused reporters are not part of them. Lines headed by an entry give the natural chain unless they say otherwise; changes in a name come on top.
UniProt P60900, whole entry: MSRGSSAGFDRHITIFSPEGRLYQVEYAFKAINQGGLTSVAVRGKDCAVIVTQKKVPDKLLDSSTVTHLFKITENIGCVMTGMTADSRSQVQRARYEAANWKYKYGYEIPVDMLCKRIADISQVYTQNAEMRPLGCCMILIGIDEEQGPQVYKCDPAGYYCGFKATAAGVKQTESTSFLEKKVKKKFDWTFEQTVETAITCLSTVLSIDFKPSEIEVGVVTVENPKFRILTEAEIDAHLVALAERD
UniProt P62942, whole entry: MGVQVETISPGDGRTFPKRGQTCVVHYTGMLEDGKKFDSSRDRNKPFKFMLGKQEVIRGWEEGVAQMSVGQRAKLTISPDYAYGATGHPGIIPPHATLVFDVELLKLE
UniProt P55957: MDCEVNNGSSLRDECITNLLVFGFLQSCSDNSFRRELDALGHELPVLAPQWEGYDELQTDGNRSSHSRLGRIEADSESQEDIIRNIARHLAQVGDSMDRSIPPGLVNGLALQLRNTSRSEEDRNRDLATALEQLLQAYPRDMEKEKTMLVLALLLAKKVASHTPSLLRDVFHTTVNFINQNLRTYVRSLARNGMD
UniProt P68402: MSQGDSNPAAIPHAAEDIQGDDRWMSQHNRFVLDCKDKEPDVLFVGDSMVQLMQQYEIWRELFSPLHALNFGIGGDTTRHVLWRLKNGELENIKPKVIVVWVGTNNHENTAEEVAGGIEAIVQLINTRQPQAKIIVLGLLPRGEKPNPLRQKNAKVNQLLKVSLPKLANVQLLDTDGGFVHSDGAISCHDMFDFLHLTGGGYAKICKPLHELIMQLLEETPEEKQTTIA
UniProt P62253: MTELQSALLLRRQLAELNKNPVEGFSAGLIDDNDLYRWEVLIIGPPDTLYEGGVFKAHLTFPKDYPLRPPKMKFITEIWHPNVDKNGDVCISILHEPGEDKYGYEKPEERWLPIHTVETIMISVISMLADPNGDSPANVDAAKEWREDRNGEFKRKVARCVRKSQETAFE
UniProt P62820, whole entry: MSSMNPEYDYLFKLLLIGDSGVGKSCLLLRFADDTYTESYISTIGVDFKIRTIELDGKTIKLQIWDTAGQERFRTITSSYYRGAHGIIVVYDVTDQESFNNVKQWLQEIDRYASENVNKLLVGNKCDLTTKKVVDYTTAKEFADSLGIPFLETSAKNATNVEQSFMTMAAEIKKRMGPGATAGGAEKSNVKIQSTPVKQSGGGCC
UniProt P62258: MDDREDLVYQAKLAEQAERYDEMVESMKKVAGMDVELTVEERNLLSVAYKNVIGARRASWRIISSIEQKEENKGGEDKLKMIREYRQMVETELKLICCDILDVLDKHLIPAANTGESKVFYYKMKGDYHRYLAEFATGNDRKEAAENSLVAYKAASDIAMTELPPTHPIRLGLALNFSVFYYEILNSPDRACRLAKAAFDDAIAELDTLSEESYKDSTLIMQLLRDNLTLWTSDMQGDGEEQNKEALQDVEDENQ
UniProt P55055, whole entry: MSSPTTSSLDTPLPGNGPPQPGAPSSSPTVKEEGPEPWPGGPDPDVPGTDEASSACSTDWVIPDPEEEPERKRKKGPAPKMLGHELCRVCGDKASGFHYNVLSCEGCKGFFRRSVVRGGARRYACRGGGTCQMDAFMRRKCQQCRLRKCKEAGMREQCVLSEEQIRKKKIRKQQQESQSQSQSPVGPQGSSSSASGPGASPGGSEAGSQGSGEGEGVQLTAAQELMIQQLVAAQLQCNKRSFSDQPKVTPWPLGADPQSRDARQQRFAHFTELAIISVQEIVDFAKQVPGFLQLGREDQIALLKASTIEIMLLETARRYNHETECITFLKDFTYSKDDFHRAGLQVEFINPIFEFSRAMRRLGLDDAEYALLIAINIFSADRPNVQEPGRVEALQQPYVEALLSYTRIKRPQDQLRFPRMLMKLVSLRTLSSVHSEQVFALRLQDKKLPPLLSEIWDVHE
UniProt P62937, whole entry, looked up: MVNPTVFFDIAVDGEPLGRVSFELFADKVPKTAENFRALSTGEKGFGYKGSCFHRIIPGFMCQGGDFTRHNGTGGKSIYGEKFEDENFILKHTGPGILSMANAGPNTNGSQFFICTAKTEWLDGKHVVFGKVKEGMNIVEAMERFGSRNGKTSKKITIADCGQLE
UniProt P58335, whole entry: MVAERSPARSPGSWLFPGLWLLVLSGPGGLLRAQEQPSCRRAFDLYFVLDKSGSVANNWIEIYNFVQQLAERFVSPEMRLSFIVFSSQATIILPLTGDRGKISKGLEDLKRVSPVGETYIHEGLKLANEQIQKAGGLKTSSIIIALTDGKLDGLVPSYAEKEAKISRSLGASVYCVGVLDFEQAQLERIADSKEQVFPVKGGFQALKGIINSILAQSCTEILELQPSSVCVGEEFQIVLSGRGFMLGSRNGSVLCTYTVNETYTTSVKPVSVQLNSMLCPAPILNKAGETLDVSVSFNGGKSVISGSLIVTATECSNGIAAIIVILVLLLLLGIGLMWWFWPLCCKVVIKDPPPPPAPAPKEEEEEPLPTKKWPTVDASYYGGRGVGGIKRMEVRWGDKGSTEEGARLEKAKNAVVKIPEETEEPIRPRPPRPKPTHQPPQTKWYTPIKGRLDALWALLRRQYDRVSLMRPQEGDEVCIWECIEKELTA
UniProt P55735: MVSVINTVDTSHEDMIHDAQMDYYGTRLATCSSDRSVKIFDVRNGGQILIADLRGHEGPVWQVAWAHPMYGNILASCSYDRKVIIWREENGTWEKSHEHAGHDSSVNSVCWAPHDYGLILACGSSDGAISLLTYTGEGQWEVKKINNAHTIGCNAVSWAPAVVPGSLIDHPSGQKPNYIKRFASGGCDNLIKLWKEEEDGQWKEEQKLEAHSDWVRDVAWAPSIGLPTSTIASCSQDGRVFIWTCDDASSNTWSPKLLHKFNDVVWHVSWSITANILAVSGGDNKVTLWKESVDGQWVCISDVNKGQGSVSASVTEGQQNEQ
UniProt P61421, whole entry: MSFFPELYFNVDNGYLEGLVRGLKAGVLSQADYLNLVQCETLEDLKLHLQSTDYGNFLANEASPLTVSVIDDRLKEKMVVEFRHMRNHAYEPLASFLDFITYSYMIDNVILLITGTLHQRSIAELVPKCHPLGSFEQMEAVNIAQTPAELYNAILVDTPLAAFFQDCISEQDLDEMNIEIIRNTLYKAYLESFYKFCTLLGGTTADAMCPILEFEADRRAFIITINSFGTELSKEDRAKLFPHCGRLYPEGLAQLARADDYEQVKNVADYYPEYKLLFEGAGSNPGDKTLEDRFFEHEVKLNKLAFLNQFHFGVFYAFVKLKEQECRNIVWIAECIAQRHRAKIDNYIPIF
UniProt P57086: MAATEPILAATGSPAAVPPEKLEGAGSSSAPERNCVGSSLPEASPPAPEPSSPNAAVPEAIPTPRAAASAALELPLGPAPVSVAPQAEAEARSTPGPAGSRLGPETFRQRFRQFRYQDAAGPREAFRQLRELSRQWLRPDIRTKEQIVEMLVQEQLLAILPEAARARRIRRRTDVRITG
UniProt P78559: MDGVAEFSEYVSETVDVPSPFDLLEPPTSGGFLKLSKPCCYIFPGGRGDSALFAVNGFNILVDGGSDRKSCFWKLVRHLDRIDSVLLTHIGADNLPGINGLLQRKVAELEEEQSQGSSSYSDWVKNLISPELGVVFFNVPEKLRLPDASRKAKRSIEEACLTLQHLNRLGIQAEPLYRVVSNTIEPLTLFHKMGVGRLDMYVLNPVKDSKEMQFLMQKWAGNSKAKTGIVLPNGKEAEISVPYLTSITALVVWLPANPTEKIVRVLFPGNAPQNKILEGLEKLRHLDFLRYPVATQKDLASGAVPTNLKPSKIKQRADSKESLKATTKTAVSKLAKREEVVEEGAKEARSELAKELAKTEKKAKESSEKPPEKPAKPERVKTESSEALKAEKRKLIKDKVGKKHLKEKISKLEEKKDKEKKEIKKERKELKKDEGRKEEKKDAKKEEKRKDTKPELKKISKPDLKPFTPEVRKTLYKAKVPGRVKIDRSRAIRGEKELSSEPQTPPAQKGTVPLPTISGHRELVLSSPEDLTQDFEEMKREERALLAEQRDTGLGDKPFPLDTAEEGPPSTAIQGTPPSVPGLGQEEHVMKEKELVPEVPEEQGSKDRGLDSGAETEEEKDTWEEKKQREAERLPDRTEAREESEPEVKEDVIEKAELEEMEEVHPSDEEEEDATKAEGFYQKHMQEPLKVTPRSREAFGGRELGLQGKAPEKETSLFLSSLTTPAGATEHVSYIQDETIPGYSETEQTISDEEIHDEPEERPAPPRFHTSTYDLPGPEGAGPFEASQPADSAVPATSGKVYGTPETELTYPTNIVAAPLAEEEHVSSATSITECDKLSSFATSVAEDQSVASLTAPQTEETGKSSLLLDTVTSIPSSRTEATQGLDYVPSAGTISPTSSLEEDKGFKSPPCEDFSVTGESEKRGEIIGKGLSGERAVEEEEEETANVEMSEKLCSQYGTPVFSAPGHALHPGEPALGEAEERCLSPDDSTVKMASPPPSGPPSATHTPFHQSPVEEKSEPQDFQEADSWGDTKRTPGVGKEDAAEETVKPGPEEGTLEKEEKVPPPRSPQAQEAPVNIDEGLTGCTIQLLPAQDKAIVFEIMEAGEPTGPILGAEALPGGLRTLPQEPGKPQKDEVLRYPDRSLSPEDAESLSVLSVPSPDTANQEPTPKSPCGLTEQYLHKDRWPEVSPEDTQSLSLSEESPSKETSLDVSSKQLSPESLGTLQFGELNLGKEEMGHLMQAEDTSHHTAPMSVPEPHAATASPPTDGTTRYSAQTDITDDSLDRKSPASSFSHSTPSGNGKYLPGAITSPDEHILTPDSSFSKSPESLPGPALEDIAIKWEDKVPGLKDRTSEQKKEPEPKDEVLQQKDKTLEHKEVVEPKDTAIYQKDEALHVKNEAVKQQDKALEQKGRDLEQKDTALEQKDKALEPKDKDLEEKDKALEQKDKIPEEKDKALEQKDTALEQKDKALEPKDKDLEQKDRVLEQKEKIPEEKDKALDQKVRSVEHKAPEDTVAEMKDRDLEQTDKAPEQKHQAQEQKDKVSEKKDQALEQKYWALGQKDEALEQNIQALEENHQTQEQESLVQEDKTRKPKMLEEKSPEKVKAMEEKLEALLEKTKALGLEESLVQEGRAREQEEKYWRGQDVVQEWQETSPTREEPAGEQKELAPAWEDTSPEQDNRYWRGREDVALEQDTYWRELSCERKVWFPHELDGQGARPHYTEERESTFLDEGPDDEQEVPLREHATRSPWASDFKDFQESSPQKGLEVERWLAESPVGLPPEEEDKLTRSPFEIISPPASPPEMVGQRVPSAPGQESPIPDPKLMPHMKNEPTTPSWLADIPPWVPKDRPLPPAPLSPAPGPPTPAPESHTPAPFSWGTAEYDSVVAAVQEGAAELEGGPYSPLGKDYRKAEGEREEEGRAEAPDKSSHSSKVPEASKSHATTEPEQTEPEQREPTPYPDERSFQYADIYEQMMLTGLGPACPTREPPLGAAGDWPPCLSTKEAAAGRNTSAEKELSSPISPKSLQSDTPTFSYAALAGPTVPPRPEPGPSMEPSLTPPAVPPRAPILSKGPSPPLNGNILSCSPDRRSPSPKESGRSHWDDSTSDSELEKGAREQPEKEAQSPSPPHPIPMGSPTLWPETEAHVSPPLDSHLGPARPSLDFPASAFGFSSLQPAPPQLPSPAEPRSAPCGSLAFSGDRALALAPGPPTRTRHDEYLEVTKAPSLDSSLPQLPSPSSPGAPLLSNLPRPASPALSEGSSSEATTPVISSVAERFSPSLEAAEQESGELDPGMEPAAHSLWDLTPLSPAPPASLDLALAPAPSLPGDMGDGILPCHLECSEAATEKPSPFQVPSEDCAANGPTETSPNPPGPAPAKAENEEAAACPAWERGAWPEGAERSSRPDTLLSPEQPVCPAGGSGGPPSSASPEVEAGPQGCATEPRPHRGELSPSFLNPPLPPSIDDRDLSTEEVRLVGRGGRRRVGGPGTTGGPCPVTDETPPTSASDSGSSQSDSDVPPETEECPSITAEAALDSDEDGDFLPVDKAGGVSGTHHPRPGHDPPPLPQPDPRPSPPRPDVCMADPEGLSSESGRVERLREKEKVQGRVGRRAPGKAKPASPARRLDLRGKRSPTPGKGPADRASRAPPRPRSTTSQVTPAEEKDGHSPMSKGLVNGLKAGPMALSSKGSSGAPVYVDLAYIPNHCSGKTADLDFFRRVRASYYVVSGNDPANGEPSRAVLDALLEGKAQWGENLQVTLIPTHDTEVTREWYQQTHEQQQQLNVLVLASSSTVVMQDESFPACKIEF
UniProt P55036: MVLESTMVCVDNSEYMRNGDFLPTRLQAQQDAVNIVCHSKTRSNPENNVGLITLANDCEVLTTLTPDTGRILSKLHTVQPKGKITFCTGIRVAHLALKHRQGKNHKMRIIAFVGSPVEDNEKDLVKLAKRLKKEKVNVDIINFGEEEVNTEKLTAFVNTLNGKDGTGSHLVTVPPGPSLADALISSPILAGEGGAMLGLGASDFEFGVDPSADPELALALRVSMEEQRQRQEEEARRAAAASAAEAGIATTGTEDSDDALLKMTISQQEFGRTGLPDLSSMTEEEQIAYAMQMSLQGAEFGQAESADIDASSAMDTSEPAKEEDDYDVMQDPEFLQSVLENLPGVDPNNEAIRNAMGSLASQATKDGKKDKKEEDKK

The targets below were run with Cc1nc(Nc2ncc(C(=O)Nc3c(C)cccc3Cl)s2)cc(N2CCN(CCO)CC2)n1 [dasatinib] (assay: log2 fold change of tryptic peptide abundance, ligand vs vehicle (limited proteolysis) (log2 ratio); higher = more trypsin-susceptible (destabilized)). Conditions: ligand concentration: 5 uM; sample: K562 cleared lysate.

For “UniProt P62195 (peptide sequence: EVIELPVKHPELFEALGIAQPK, peptide start residue: 163)”, which log2 fold change is on record?
The log2 fold change was 0.113.

How did the log2 fold change turn out when “PSMA6 (peptide sequence: GKDCAVIVTQK, peptide start residue: 44) (UniProt P60900)” was run?
Its log2 fold change is 0.52.

With “ELOF1 (peptide sequence: SCDVKMDR, peptide start residue: 34) (UniProt P60002)” as the target, how does the log2 fold change read?
The log2 fold change was -0.548.

Which log2 fold change does the source give for “AP2B1 (peptide sequence: AELNNEKKEK, peptide start residue: 20) (UniProt P63010)” here?
Its log2 fold change is 1.25.

“UniProt P60709 (peptide sequence: YPIEHGIVTNWDDMEK, peptide start residue: 69)” was tested. Which log2 fold change did it give?
The log2 fold change was 0.0967.

Which log2 fold change does the source give for “FKBP1A (peptide sequence: RGQTCVVHYTGMLEDGKK, peptide start residue: 19) (UniProt P62942)” here?
Its log2 fold change is 0.12.

How did the log2 fold change turn out when “BID (peptide sequence: IEADSESQEDIIRNIAR, peptide start residue: 72) (UniProt P55957)” was run?
Its log2 fold change is 0.251.

For “PAFAH1B2 (peptide sequence: IIVLGLLPR, peptide start residue: 134) (UniProt P68402)”, which log2 fold change is on record?
Its log2 fold change is -0.422.

With “PRAME (peptide sequence: HVMNPLETLSITNCR, peptide start residue: 319) (UniProt P78395)” as the target, how does the log2 fold change read?
The log2 fold change was -0.173.

How did the log2 fold change turn out when “VBP1 (peptide sequence: GEMATGNGR, peptide start residue: 11) (UniProt P61758)” was run?
Its log2 fold change is 0.0897.

Which log2 fold change does the source give for “UniProt P62253 (peptide sequence: AHLTFPKDYPLRPPK, peptide start residue: 57)” here?
Its log2 fold change is 0.103.

For “MRPS15 (peptide sequence: RNPDSPAK, peptide start residue: 240) (UniProt P82914)”, which log2 fold change is on record?
The log2 fold change was 0.26.

How did the log2 fold change turn out when “FOXL2 (peptide sequence: QPELAMMHCSYWDHDSK, peptide start residue: 350) (UniProt P58012)” was run?
The log2 fold change was -0.242.

How did the log2 fold change turn out when “MRPS5 (peptide sequence: VEADMIQQR, peptide start residue: 168) (UniProt P82675)” was run?
Its log2 fold change is 0.309.

How did the log2 fold change turn out when “UniProt P62820 (peptide sequence: MGPGATAGGAEK, peptide start residue: 176)” was run?
Its log2 fold change is 0.127.

With “UniProt P62241 (peptide sequence: QWYESHYALPLGRK, peptide start residue: 111)” as the target, how does the log2 fold change read?
The log2 fold change was 0.0708.

For “UniProt P62258 (peptide sequence: IISSIEQKEENKGGEDK, peptide start residue: 62)”, which log2 fold change is on record?
The log2 fold change was -0.58.

How did the log2 fold change turn out when “NR1H2 (peptide sequence: TLSSVHSEQVFALR, peptide start residue: 429) (UniProt P55055)” was run?
Its log2 fold change is -0.13.

For “PPIA (peptide sequence: FEDENFILK, peptide start residue: 83) (UniProt P62937)”, which log2 fold change is on record?
Its log2 fold change is 0.279.

Which log2 fold change does the source give for “UniProt P63272 (peptide sequence: VSNFKPGVYAVSVTGRLPQGIVR, peptide start residue: 77)” here?
Its log2 fold change is 0.102.

“ANTXR2 (peptide sequence: EEEEEPLPTKK, peptide start residue: 362) (UniProt P58335)” was tested. Which log2 fold change did it give?
Its log2 fold change is 0.0451.

“UniProt P61221 (peptide sequence: LNSIKDVEQKK, peptide start residue: 580)” was tested. Which log2 fold change did it give?
The log2 fold change was 0.222.

“SEC13 (peptide sequence: VIIWREENGTWEK, peptide start residue: 83) (UniProt P55735)” was tested. Which log2 fold change did it give?
The log2 fold change was -0.173.

With “IFI35 (peptide sequence: EHTINMEECRLR, peptide start residue: 99) (UniProt P80217)” as the target, how does the log2 fold change read?
Its log2 fold change is 0.719.

With “ATP6V0D1 (peptide sequence: LYPEGLAQLAR, peptide start residue: 247) (UniProt P61421)” as the target, how does the log2 fold change read?
Its log2 fold change is -0.0494.

Which log2 fold change does the source give for “CSNK2B (peptide sequence: GIAQMLEK, peptide start residue: 93) (UniProt P67870)” here?
The log2 fold change was -0.37.

For “SCAND1 (peptide sequence: YQDAAGPR, peptide start residue: 116) (UniProt P57086)”, which log2 fold change is on record?
The log2 fold change was 0.0635.

How did the log2 fold change turn out when “UniProt P78559 (peptide sequence: GEKELSSEPQTPPAQK, peptide start residue: 494)” was run?
The log2 fold change was 0.751.

How did the log2 fold change turn out when “UniProt P60660 (peptide sequence: VFDKEGNGTVMGAEIR, peptide start residue: 95)” was run?
The log2 fold change was 0.186.

Which log2 fold change does the source give for “P63268 (peptide sequence: PEYDEAGPSIVHR, peptide start residue: 361) (UniProt P63267)” here?
Its log2 fold change is 0.304.

For “FAU (peptide sequence: FVNVVPTFGK, peptide start residue: 116) (UniProt P62861)”, which log2 fold change is on record?
Its log2 fold change is 0.0498.

How did the log2 fold change turn out when “RPP30 (peptide sequence: LYDVVAVFPK, peptide start residue: 99) (UniProt P78346)” was run?
Its log2 fold change is 0.547.

How did the log2 fold change turn out when “NAP1L1 (peptide sequence: DQNPAECK, peptide start residue: 382) (UniProt P55209)” was run?
The log2 fold change was -0.675.

How did the log2 fold change turn out when “BTG1 (peptide sequence: MHPFYTR, peptide start residue: 1) (UniProt P62324)” was run?
Its log2 fold change is -0.0501.

“SRPK2 (peptide sequence: LQEIEELEREAER, peptide start residue: 287) (UniProt P78362)” was tested. Which log2 fold change did it give?
Its log2 fold change is 0.131.

For “PSMD4 (peptide sequence: LQAQQDAVNIVCHSKTR, peptide start residue: 26) (UniProt P55036)”, which log2 fold change is on record?
Its log2 fold change is -0.797.

With “EIF6 (peptide sequence: NSLPDTVQIR, peptide start residue: 86) (UniProt P56537)” as the target, how does the log2 fold change read?
The log2 fold change was -0.0255.

How did the log2 fold change turn out when “BCAR1 (peptide sequence: FVILSAHK, peptide start residue: 784) (UniProt P56945)” was run?
Its log2 fold change is 0.196.
